From the supplement of paper PMC8975748 come the findings set out here.

Counter-ions that a name gives are not always drawn. ± gives the standard deviation of the averaged measurements. The list shows a part of the results. These are raw signals, not scaled to a control.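 One yeast strain harboring four plasmids, each bearing a fluorescent protein plus an amino-acid or uracil synthesis gene, founds the community. Random loss of plasmids produces mixed prototroph and auxotroph subpopulations. Cells were fixed, then counted with automated confocal fluorescence imaging, with DMSO-treated wells as vehicle reference.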 Bridge positions count the residues as written; N and C are the ends. Square brackets hold non-standard residues; d marks the D form. Peptide text beside a SMILES is read from it. * marks the point of attachment. Heptanoyl(6-Me) = CC(C)CCCCC(=O)*; Dab = NCC[C@H](N)C(=O)O

This experiment deals with Saccharomyces cerevisiae BY4741 SeMeCo community. Nature of the experiment: imaged cell count per well (cells); higher = more cells. The conditions noted are these: 10 µM; 24 h; SM minimal medium. As to the method:
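Same SeMeCo high-content imaging drug screen: Selleck FDA-approved drugs at 10 µM, 24 h in SM medium, 384-well plates, 3 replicates.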
On to `O=C(Cn1cnnn1)N[C@@H]1C(=O)N2C(C(=O)O)=C(CSc3nncs3)CS[C@H]12` [Ceftezole sodium], for which the “imaged cell count per well” value worked out at 21400 ± 9400. The same measure for `CCCCCCCCCCCCCCCC[N+](C)(C)C` [Cetrimonium Bromide (CTAB)]: 1270 ± 390; for `CN1CCN(CCCN2c3ccccc3Sc3ccc(C(F)(F)F)cc32)CC1` [Trifluoperazine 2HCl]: 27300 ± 8800.

`COc1cccc2c1C(=O)c1c(O)c3c(c(O)c1C2=O)C[C@@](O)(C(C)=O)C[C@@H]3O[C@H]1C[C@H](N)[C@H](O)[C@H](C)O1` [Daunorubicin HCl]: the “imaged cell count per well” value came out at 19100 ± 4000. The same measure for `NC(=O)C(c1ccccc1)(c1ccccc1)[C@@H]1CCN(CCc2ccc3c(c2)CCO3)C1` [Darifenacin HBr]: 26300 ± 10000; for `CCN(CC)CCOC(=O)c1ccc(N)cc1` [Procaine HCl]: 22400 ± 6700; for `Nc1cc(C(Cl)=C(Cl)Cl)c(S(N)(=O)=O)cc1S(N)(=O)=O` [Clorsulon]: 20900 ± 5300. The same measure for `COCCCN1CCC(NC(=O)c2cc(Cl)c(N)c3c2OCC3)CC1` [Prucalopride Succinate]: 17600 ± 13000. The same measure for `Cc1c(C(N)=O)cc([N+](=O)[O-])cc1[N+](=O)[O-]` [Dinitolmide]: 24100 ± 4900; for `CCC[C@@H]1C[C@@H](C(=O)N[C@@H]([C@H]2O[C@H](SC)[C@H](OP(=O)(O)O)[C@@H](O)[C@H]2O)[C@H](C)Cl)N(C)C1` [Clindamycin Phosphate]: 27600 ± 4600. For `CNS(=O)(=O)Cc1ccc2[nH]cc(CCN(C)C)c2c1` [Sumatriptan Succinate], the “imaged cell count per well” value worked out at 22700 ± 2000. The result for `CC[C@H]1OC(=O)[C@H](C)[C@@H](O[C@H]2C[C@@](C)(OC)[C@@H](O)[C@H](C)O2)[C@H](C)[C@@H](O[C@@H]2O[C@H](C)C[C@H](N(C)C)[C@H]2O)[C@](C)(O)C[C@@H](C)C(=O)[C@H](C)[C@H]2OC(=O)O[C@@]21C` [Erythromycin Cyclocarbonate] reads 27200 ± 620; that for `CNCC[C@@H](Oc1ccccc1C)c1ccccc1` [Atomoxetine HCl], 22500 ± 6800.

Take `O=C(c1ccccc1)c1ccc2n1CCC2C(=O)O` (centres undefined) [Ketorolac tromethamine salt]: the “imaged cell count per well” value was determined as 26700 ± 1900. The result for `O=C1CN(/N=C/c2ccc([N+](=O)[O-])o2)C(=O)N1` [Nitrofurantoin] reads 22500 ± 2500; that for `CN1CCN(c2cc3c(cc2F)c(=O)c(C(=O)O)cn3-c2ccc(F)cc2)CC1` [Difloxacin hydrochloride], 27500 ± 4500. The same measure for `Clc1ccccc1C(c1ccccc1)(c1ccccc1)n1ccnc1` [Clotrimazole]: 5200 ± 1200.

For the compound `CCCCC(=O)O[C@H]1CC[C@H]2[C@@H]3CCc4cc(O)ccc4[C@H]3CC[C@]12C` [Estradiol valerate], the “imaged cell count per well” value was found to be 27300 ± 5600. The same measure for `C[C@H]1COc2c(C3(N)CC3)c(F)cc3c(=O)c(C(=O)O)cn1c23` [Pazufloxacin mesylate]: 21000 ± 10000; for `CC(C)N1CCN(c2ccc(OCC3COC(Cn4cncn4)(c4ccc(Cl)cc4Cl)O3)cc2)CC1` (centres undefined) [Terconazole]: 29900 ± 2900. In the case of `CC[C@H](Nc1ncnc2[nH]cnc12)c1nc2cccc(F)c2c(=O)n1-c1ccccc1` [Idelalisib (CAL-101, GS-1101)], the “imaged cell count per well” value is 18600 ± 7700. Turning to `O=C(Nc1cc(Cl)cc(Cl)c1O)c1c(O)c(Cl)cc(Cl)c1Cl` [Oxyclozanide], the “imaged cell count per well” value worked out at 18400 ± 4800. The same measure for `Clc1ccc(C(Cn2ccnc2)OCc2csc3c(Cl)cccc23)c(Cl)c1` (centres undefined) [Sertaconazole nitrate]: 1650 ± 680; for `CCOC(=O)C1=C(C)NC(C)=C(C(=O)OC)C1c1cccc(Cl)c1Cl` (centres undefined) [Felodipine]: 24500 ± 2200. With `CCCCOC(=O)c1ccc(O)cc1` [Butylparaben], the “imaged cell count per well” value is 25500 ± 6100. The result for `C[C@H](NCc1ccc(OCc2cccc(F)c2)cc1)C(N)=O` [Safinamide Mesylate] reads 24800 ± 1500; that for `COc1ccc(Cl)cc1C(=O)NCCc1ccc(S(=O)(=O)NC(=O)NC2CCCCC2)cc1` [Glyburide (Glibenclamide)], 25900 ± 3400.

As for `c1ccc2[nH]c(-c3cscn3)nc2c1` [Thiabendazole], the “imaged cell count per well” value was 27200 ± 660.

`CCC[C@@H]1C[C@@H](C(=O)N[C@@H]([C@H]2O[C@H](SC)[C@H](O)[C@@H](O)[C@H]2O)[C@H](C)Cl)N(C)C1` [Clindamycin HCl]: the “imaged cell count per well” value worked out at 19400 ± 2100. The result for `Clc1ccc(C(Cn2ccnc2)OCc2ccc(Sc3ccccc3)cc2)c(Cl)c1` (centres undefined) [Fenticonazole Nitrate] reads 879 ± 240; that for `O=C(O)Cc1ccccc1Nc1c(Cl)cccc1Cl` [Diclofenac Sodium], 19000 ± 2100; that for `Cc1onc(-c2ccccc2Cl)c1C(=O)N[C@@H]1C(=O)N2[C@@H]1SC(C)(C)[C@@H]2C(=O)O` [Cloxacillin Sodium], 18200 ± 6500. As for `CCCC(=O)OCOC(=O)C1=C(C)NC(C)=C(C(=O)OC)C1c1cccc(Cl)c1Cl` (centres undefined) [Clevidipine Butyrate], the “imaged cell count per well” value is 23900 ± 4900. For `Nc1ccc(S(N)(=O)=O)cc1` [Sulfanilamide], the “imaged cell count per well” value came to 25700 ± 2000. In the case of `CCCCNc1ccc(C(=O)OCCN(C)C)cc1` [Tetracaine HCl], the “imaged cell count per well” value was found to be 19400 ± 6900. The same measure for `CCOC(=O)OC(C)OC1=C(C(=O)Nc2ccccn2)N(C)S(=O)(=O)c2ccccc21` (centres undefined) [Ampiroxicam]: 31800 ± 8900. The result for `CC(C)CCCCC(=O)N[C@@H](CCN)C(=O)N[C@H](C(=O)N[C@@H](CCN)C(=O)N[C@H]1CCNC(=O)[C@H]([C@@H](C)O)NC(=O)[C@H](CCN)NC(=O)[C@H](CCN)NC(=O)[C@H](CC(C)C)NC(=O)[C@@H](Cc2ccccc2)NC(=O)[C@H](CCN)NC1=O)[C@@H](C)O` [Polymyxin B sulphate] ({Heptanoyl(6-Me)}-[Dab]T[Dab][Dab][Dab][dF]L[Dab][Dab]T; lactam 4-C) reads 32300 ± 6500. The result for `CC(=O)[O-].[K+]` [Potassium acetate] reads 23100 ± 3800; that for `COc1ccnc(C[S+]([O-])c2nc3cc(-n4cccc4)ccc3[nH]2)c1C` (centres undefined) [Ilaprazole sodium], 21800 ± 5600.
